This assay addresses cyclin B1 (human (endogenous in NCI-H1048 and NCI-H446)) (UniProt P14635). Description: affinity purification with mass spectrometry.

Protein sequences, listed by entry. Tags and fused reporters are not part of them.
UniProt P14635: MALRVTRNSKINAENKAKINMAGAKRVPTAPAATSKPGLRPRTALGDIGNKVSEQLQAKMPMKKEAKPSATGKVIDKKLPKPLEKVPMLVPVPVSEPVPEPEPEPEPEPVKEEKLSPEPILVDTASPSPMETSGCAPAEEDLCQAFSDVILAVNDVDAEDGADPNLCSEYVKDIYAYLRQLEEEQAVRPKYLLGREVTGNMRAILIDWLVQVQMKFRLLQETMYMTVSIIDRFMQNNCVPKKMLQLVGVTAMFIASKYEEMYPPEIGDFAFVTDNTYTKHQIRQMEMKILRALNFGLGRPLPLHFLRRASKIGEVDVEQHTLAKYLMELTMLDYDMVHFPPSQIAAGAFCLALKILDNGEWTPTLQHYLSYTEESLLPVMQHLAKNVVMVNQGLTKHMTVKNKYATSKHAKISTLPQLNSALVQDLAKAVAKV

Drawing on paper doi:10.1101/2024.08.01.605889, this text covers binding for two molecules.

These are yes or no findings as the source states them, for the method shown. Binding seen in cells or lysates may run through a third protein. Here binding means that the protein was enriched with, or labelled near, the bait; the list need not be complete.

B1: p57^Kip2 (protein, UniProt P49918 1-316)
chain: MSDASLRSTSTMERLVARGTFPVLVRTSACRSLFGPVDHEELSRELQARLAELNAEDQNRWDYDFQQDMPLRGPGRLQWTEVDSDSVPAFYRETVQVGRCRLLLAPRPVAVAVAVSPPLEPAAESLDGLEEAPEQLPSVPVPAPASTPPPVPVLAPAPAPAPAPVAAPVAAPVAVAVLAPAPAPAPAPAPAPAPVAAPAPAPAPAPAPAPAPAPAPDAAPQESAEQGANQGQRGQEPLADQLHSGISGRPAAGTAAASANGAAIKKLSGPLISDFFAKRKRSAPEKSSGDVPAPCPSPSAAPGVGSVEQTPRKRLR
On to B1, for which the binding entry was “binds”.

B2: Myt1 (enzyme, UniProt Q99640 1-499)
chain: MLERPPALAMPMPTEGTPPPLSGTPIPVPAYFRHAEPGFSLKRPRGLSRSLPPPPPAKGSIPISRLFPPRTPGWHQLQPRRVSFRGEASETLQSPGYDPSRPESFFQQSFQRLSRLGHGSYGEVFKVRSKEDGRLYAVKRSMSPFRGPKDRARKLAEVGSHEKVGQHPCCVRLEQAWEEGGILYLQTELCGPSLQQHCEAWGASLPEAQVWGYLRDTLLALAHLHSQGLVHLDVKPANIFLGPRGRCKLGDFGLLVELGTAGAGEVQEGDPRYMAPELLQGSYGTAADVFSLGLTILEVACNMELPHGGEGWQQLRQGYLPPEFTAGLSSELRSVLVMMLEPDPKLRATAEALLALPVLRQPRAWGVLWCMAAEALSRGWALWQALLALLCWLWHGLAHPASWLQPLGPPATPPGSPPCSLLLDSSLSSNWDDDSLGPSLSPEAVLARTVGSTSTPRSRCTPRDALDLSDINSEPPRGSFPSFEPRNLLSLFEDTLDPT
With B2, the binding result was “binds”.
